Record: PubChem BioAssay AID504764 (Drosophila RNAi Screening Center, 2011)

Assay: 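Genes whose knock-down alters Notch-dependent transcription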 (primary screen)
Cells: Drosophila Kc167 cells
Reagent: long dsRNA against Drosophila genes
Time to read-out: about 5 days (4 days dsRNA, then 24 h after transfection)
Challenge: transfection of constitutively active membrane-tethered Notch lacking the extracellular domain, read 24 h later
Detection: 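Light from a Notch-responsive E(spl)m3 luciferase reporter under active Notch, with control-promoter and no-Notch reporter wells to normalise; raw counts from paired wells a and b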
Direction: induced reporter light, run 1, well a and induced reporter light, run 1, well b: higher = more light from the Notch target reporter with active Notch; control promoter light, run 1, well a and control promoter light, run 1, well b: higher = more light from the viral control promoter (cell number, transfection, viability); uninduced reporter light, run 1, well a: higher = more light from the Notch target reporter without active Notch
Active means: 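Wells with low control signal or poorly matching duplicates excluded; duplicates averaged; per source plate, z beyond ±2 for induced/control log2 ratio or beyond ±1.8 for induced/uninduced marks a hit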
Meaning of the calls: active = modifier hit (raised or lowered Notch signal); inactive = not a hit
In all, the deposit lists about 22,000 reagents; this is an unselected part of those that have a named target and a result. In the full data, 403 (1.9%) got an active call. 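Unnormalised raw counts per well; ratio z-scores behind the hit calls and whether each hit raises or lowers signal are not deposited.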 Entries without a mark were called inactive. Names joined by + are all predicted targets of the reagent. Not stated in the record: the amount of reagent.

For CG42812 + CG42811 [DRSC15367], what does the deposit list?
induced reporter light, run 1, well a: 1.30e5; induced reporter light, run 1, well b: 1.33e5; control promoter light, run 1, well a: 1.83e5; control promoter light, run 1, well b: 1.65e5; uninduced reporter light, run 1, well a: 12665

Which result is listed for CG42812 + CG42811 [DRSC15368]?
induced reporter light, run 1, well a: 1.52e5; induced reporter light, run 1, well b: 1.52e5; control promoter light, run 1, well a: 1.89e5; control promoter light, run 1, well b: 1.67e5; uninduced reporter light, run 1, well a: 12915

What did the screen give for Ugt36A1 [DRSC00748]?
induced reporter light, run 1, well a: 2.61e5; induced reporter light, run 1, well b: 1.94e5; control promoter light, run 1, well a: 2.53e5; control promoter light, run 1, well b: 2.12e5; uninduced reporter light, run 1, well a: 14320

For kst [DRSC08719], what does the deposit list?
induced reporter light, run 1, well a: 1.22e5; induced reporter light, run 1, well b: 1.21e5; control promoter light, run 1, well a: 87530; control promoter light, run 1, well b: 34060; uninduced reporter light, run 1, well a: 11970

How did the screen score Alg1 [DRSC15297]?
induced reporter light, run 1, well a: 2.22e5; induced reporter light, run 1, well b: 1.83e5; control promoter light, run 1, well a: 2.29e5; control promoter light, run 1, well b: 2.38e5; uninduced reporter light, run 1, well a: 18165

What is on record for Xrp1 [DRSC15282]?
induced reporter light, run 1, well a: 22135; induced reporter light, run 1, well b: 19880; control promoter light, run 1, well a: 14638; control promoter light, run 1, well b: 12915; uninduced reporter light, run 1, well a: 4335

How did the screen score Xrp1 [DRSC15283]?
induced reporter light, run 1, well a: 53150; induced reporter light, run 1, well b: 43510; control promoter light, run 1, well a: 87015; control promoter light, run 1, well b: 91210; uninduced reporter light, run 1, well a: 6445

How did the screen score CG6661 [DRSC10687]?
induced reporter light, run 1, well a: 1.55e5; induced reporter light, run 1, well b: 1.69e5; control promoter light, run 1, well a: 1.35e5; control promoter light, run 1, well b: 1.61e5; uninduced reporter light, run 1, well a: 13265

For CngB [DRSC04297], what was measured?
induced reporter light, run 1, well a: 1.33e5; induced reporter light, run 1, well b: 1.87e5; control promoter light, run 1, well a: 1.13e5; control promoter light, run 1, well b: 1.22e5; uninduced reporter light, run 1, well a: 10465

For CG5217 [DRSC15740], how do the results read?
induced reporter light, run 1, well a: 1.98e5; induced reporter light, run 1, well b: 1.75e5; control promoter light, run 1, well a: 2.25e5; control promoter light, run 1, well b: 2.31e5; uninduced reporter light, run 1, well a: 13528

How did the screen score Eig71Ef [DRSC11153]?
induced reporter light, run 1, well a: 1.92e5; induced reporter light, run 1, well b: 1.24e5; control promoter light, run 1, well a: 2.00e5; control promoter light, run 1, well b: 2.20e5; uninduced reporter light, run 1, well a: 5740

What is on record for mRpS11 [DRSC15732]?
induced reporter light, run 1, well a: 2.53e5; induced reporter light, run 1, well b: 1.98e5; control promoter light, run 1, well a: 1.87e5; control promoter light, run 1, well b: 1.89e5; uninduced reporter light, run 1, well a: 17645

For Cyp4d8 [DRSC11131], what was measured?
induced reporter light, run 1, well a: 99610; induced reporter light, run 1, well b: 1.19e5; control promoter light, run 1, well a: 74085; control promoter light, run 1, well b: 26780; uninduced reporter light, run 1, well a: 9890

With Nin [DRSC02007], how do the results read?
induced reporter light, run 1, well a: 1.74e5; induced reporter light, run 1, well b: 1.37e5; control promoter light, run 1, well a: 1.36e5; control promoter light, run 1, well b: 1.64e5; uninduced reporter light, run 1, well a: 11145

With CG13033 [DRSC09913], what does the deposit list?
induced reporter light, run 1, well a: 1.73e5; induced reporter light, run 1, well b: 1.87e5; control promoter light, run 1, well a: 1.89e5; control promoter light, run 1, well b: 1.55e5; uninduced reporter light, run 1, well a: 6838

Which result is listed for CG32679 [DRSC17644]?
induced reporter light, run 1, well a: 62495; induced reporter light, run 1, well b: 74575; control promoter light, run 1, well a: 88190; control promoter light, run 1, well b: 82050; uninduced reporter light, run 1, well a: 4870

With CG11837 [DRSC14397], what was measured?
induced reporter light, run 1, well a: 1.99e5; induced reporter light, run 1, well b: 2.29e5; control promoter light, run 1, well a: 3.08e5; control promoter light, run 1, well b: 2.88e5; uninduced reporter light, run 1, well a: 13620

How did the screen score para [DRSC19141]?
induced reporter light, run 1, well a: 92910; induced reporter light, run 1, well b: 91985; control promoter light, run 1, well a: 95365; control promoter light, run 1, well b: 91660; uninduced reporter light, run 1, well a: 7360

For para [DRSC20360], what does the deposit list?
induced reporter light, run 1, well a: 98120; induced reporter light, run 1, well b: 88670; control promoter light, run 1, well a: 95290; control promoter light, run 1, well b: 82465; uninduced reporter light, run 1, well a: 13760

With Git [DRSC06620], what was measured?
induced reporter light, run 1, well a: 1.76e5; induced reporter light, run 1, well b: 1.45e5; control promoter light, run 1, well a: 1.56e5; control promoter light, run 1, well b: 1.51e5; uninduced reporter light, run 1, well a: 14330

How did the screen score fry [DRSC08993]?
induced reporter light, run 1, well a: 1.88e5; induced reporter light, run 1, well b: 1.52e5; control promoter light, run 1, well a: 1.71e5; control promoter light, run 1, well b: 2.12e5; uninduced reporter light, run 1, well a: 13305

With fry [DRSC10172], how do the results read?
induced reporter light, run 1, well a: 1.59e5; induced reporter light, run 1, well b: 1.08e5; control promoter light, run 1, well a: 1.75e5; control promoter light, run 1, well b: 1.52e5; uninduced reporter light, run 1, well a: 7025

How did the screen score fry [DRSC10709]?
induced reporter light, run 1, well a: 1.42e5; induced reporter light, run 1, well b: 1.18e5; control promoter light, run 1, well a: 2.36e5; control promoter light, run 1, well b: 1.91e5; uninduced reporter light, run 1, well a: 8010

How did the screen score fry [DRSC10712]?
induced reporter light, run 1, well a: 78630; induced reporter light, run 1, well b: 67305; control promoter light, run 1, well a: 33390; control promoter light, run 1, well b: 16795; uninduced reporter light, run 1, well a: 9755

A stretch of the results above:
CG13033 [DRSC09913] → induced reporter light, run 1, well a = 1.73e5; induced reporter light, run 1, well b = 1.87e5; control promoter light, run 1, well a = 1.89e5; control promoter light, run 1, well b = 1.55e5; uninduced reporter light, run 1, well a = 6838
CG32679 [DRSC17644] → induced reporter light, run 1, well a = 62495; induced reporter light, run 1, well b = 74575; control promoter light, run 1, well a = 88190; control promoter light, run 1, well b = 82050; uninduced reporter light, run 1, well a = 4870
